Laboratory results taken from PMC6702834.
These are yes or no findings as the source states them, for the method shown. Binding seen in cells or lysates may run through a third protein. Here binding means that the protein was enriched with, or labelled near, the bait; the list need not be complete.

Protein sequences, listed by entry. Tags and fused reporters are not part of them. Lines headed by an entry give the natural chain unless they say otherwise; changes in a name come on top. Residues count along the entry.
UniProt P16070: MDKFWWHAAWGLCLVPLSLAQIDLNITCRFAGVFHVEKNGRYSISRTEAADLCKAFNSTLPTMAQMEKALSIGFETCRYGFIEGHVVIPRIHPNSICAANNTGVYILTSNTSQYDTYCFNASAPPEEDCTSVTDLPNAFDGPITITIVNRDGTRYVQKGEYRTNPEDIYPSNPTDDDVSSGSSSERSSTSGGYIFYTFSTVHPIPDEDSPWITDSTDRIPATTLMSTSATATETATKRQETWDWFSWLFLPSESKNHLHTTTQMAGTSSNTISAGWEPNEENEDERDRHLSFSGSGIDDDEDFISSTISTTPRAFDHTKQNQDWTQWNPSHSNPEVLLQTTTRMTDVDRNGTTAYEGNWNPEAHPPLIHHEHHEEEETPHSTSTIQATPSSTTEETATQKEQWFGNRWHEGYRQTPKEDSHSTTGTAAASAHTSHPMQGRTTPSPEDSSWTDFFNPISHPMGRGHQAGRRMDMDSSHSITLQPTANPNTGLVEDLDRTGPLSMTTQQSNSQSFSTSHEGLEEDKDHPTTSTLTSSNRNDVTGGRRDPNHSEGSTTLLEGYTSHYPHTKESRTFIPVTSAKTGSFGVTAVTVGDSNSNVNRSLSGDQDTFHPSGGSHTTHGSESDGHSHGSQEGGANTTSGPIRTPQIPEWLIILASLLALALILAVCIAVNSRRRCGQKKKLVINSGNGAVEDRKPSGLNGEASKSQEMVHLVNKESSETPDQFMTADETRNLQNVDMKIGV
UniProt Q05397: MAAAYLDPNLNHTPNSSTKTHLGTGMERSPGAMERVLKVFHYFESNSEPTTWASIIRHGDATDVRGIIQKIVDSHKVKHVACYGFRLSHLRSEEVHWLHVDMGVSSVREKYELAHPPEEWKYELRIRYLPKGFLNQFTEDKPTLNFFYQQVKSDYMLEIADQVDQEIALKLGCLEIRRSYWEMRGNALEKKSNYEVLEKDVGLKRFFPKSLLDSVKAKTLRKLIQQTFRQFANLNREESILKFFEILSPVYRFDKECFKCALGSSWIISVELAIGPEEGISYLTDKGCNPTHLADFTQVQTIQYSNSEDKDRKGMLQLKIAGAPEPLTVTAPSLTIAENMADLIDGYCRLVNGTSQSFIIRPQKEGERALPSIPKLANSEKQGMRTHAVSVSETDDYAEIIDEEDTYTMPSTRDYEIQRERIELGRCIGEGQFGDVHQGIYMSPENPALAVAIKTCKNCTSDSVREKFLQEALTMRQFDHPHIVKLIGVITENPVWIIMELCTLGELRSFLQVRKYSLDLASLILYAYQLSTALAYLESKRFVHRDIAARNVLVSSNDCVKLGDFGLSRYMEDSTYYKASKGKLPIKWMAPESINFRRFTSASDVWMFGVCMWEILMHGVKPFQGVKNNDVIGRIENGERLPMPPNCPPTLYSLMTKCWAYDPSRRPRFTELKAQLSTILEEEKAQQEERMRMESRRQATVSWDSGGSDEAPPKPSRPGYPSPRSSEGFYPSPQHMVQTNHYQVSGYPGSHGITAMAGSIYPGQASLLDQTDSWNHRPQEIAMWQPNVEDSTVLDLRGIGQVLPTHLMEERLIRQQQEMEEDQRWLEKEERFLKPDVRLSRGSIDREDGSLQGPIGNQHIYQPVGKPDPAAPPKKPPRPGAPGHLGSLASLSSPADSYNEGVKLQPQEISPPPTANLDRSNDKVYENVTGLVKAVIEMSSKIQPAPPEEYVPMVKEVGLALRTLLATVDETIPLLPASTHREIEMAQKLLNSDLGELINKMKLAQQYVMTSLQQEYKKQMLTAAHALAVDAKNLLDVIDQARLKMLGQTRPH
UniProt Q01082: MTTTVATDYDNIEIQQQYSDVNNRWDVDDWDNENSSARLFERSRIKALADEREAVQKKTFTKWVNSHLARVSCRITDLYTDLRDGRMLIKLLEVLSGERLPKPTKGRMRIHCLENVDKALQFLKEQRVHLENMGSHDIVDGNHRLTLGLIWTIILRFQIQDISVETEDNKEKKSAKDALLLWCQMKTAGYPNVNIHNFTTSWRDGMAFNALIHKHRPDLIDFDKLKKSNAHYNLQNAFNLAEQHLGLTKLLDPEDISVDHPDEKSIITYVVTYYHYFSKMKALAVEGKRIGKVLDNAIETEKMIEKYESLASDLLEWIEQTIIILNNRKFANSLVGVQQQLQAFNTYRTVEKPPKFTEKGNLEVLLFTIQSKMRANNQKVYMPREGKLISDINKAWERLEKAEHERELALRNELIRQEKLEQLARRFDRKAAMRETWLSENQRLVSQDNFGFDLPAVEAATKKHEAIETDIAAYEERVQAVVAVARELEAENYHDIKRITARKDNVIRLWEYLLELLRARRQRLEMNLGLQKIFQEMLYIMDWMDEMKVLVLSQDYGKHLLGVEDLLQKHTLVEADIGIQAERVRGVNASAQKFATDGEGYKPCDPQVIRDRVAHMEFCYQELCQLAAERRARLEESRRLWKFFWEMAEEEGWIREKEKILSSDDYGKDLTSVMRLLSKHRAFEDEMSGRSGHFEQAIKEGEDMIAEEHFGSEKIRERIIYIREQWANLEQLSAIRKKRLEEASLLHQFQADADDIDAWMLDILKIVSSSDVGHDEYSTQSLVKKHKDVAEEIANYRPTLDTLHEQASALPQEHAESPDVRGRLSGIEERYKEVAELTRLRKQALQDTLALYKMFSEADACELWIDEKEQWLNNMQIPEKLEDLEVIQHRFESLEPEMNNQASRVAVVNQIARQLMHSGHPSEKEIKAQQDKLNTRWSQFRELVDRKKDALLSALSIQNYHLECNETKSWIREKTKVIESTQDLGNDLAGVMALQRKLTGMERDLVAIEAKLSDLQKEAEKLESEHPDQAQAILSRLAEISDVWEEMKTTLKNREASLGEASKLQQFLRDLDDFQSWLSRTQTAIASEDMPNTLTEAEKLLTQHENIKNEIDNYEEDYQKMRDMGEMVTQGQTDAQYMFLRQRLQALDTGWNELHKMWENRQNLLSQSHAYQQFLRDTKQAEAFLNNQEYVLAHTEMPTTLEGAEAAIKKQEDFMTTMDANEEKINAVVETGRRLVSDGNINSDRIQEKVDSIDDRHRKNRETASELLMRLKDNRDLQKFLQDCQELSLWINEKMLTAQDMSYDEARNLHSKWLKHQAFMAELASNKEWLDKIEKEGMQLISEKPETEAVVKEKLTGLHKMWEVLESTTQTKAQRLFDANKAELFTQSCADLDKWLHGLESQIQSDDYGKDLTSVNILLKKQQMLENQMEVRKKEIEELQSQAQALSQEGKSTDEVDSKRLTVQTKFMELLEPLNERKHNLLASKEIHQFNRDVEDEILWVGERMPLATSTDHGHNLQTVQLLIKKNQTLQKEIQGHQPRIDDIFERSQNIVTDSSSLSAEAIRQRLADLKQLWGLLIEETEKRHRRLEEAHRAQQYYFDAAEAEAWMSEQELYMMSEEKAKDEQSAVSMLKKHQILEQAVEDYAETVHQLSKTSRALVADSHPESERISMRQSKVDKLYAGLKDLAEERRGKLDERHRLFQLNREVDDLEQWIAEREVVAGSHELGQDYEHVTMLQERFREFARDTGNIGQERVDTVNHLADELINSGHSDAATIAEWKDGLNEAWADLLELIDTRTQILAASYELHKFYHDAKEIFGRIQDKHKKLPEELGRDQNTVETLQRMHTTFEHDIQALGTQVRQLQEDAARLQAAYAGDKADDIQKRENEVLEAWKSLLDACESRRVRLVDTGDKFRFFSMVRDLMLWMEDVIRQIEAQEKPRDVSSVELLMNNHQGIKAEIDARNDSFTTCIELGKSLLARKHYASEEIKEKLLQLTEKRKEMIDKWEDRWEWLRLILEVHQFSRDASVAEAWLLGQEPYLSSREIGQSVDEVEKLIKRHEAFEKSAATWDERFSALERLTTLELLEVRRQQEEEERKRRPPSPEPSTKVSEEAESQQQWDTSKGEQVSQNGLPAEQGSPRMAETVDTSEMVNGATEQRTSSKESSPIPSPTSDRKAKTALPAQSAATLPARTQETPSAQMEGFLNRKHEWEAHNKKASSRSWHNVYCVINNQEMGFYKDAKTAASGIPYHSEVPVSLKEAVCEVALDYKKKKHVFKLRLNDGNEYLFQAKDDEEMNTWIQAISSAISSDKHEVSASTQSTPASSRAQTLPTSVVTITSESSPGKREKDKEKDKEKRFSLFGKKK
UniProt Q6UVK1, residues 30-2322: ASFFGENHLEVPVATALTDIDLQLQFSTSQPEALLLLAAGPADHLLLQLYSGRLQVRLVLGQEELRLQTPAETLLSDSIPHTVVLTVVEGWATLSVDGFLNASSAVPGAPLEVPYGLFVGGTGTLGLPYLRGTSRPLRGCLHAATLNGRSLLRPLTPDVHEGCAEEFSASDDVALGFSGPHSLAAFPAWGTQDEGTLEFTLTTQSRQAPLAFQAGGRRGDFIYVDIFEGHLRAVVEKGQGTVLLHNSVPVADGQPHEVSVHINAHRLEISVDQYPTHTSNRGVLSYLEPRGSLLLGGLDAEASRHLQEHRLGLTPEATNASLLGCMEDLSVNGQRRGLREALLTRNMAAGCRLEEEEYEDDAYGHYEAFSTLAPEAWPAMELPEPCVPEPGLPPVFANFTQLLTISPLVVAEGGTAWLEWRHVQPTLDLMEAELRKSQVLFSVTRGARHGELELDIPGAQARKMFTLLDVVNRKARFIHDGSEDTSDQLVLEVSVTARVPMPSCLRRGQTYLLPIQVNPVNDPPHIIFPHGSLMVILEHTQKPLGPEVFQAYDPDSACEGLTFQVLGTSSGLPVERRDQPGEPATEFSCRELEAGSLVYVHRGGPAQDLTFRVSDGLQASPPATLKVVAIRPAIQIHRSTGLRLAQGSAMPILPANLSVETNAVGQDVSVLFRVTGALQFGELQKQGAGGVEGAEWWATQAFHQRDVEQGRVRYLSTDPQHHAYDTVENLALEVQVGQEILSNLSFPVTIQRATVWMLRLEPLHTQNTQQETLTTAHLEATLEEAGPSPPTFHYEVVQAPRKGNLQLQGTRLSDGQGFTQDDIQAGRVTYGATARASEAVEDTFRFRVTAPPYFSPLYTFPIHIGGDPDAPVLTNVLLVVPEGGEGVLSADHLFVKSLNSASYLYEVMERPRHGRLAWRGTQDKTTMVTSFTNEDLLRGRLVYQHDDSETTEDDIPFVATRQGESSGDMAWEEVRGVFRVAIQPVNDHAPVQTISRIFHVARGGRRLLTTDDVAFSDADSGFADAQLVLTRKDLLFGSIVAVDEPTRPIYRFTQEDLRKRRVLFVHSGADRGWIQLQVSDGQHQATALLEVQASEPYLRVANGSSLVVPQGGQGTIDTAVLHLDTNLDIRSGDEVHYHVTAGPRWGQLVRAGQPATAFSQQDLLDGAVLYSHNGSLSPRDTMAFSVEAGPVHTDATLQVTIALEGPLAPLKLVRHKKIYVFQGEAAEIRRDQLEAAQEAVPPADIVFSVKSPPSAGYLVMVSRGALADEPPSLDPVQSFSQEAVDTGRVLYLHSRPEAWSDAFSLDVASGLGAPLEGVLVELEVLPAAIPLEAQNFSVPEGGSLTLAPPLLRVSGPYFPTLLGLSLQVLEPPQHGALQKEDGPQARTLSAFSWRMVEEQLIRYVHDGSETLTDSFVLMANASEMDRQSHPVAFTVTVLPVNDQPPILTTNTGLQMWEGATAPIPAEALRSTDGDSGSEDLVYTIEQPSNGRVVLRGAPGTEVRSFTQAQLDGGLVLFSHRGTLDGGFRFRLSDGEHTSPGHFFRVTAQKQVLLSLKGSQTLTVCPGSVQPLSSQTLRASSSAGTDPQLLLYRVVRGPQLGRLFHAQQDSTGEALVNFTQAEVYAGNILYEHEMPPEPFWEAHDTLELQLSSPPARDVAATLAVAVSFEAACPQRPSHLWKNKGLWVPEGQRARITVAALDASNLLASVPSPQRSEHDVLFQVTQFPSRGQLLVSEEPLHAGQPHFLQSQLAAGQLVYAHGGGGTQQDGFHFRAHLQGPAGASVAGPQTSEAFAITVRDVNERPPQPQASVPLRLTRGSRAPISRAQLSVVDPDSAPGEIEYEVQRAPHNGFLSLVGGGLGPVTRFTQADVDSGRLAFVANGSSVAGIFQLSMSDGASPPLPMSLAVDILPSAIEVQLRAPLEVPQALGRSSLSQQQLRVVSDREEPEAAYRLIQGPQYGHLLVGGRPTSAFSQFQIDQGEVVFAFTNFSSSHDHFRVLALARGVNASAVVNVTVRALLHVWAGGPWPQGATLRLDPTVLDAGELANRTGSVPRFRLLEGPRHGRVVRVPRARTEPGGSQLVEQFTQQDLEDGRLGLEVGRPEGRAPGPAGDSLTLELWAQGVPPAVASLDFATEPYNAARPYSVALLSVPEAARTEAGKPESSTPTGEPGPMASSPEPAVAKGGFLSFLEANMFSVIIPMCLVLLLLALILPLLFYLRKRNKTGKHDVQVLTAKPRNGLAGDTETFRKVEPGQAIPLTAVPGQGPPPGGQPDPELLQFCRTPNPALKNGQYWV

B1: Putative helicase MOV-10 (protein, UniProt Q9HCE1 1-1003)
chain: MPSKFSCRQLREAGQCFESFLVVRGLDMETDRERLRTIYNRDFKISFGTPAPGFSSMLYGMKIANLAYVTKTRVRFFRLDRWADVRFPEKRRMKLGSDISKHHKSLLAKIFYDRAEYLHGKHGVDVEVQGPHEARDGQLLIRLDLNRKEVLTLRLRNGGTQSVTLTHLFPLCRTPQFAFYNEDQELPCPLGPGECYELHVHCKTSFVGYFPATVLWELLGPGESGSEGAGTFYIARFLAAVAHSPLAAQLKPMTPFKRTRITGNPVVTNRIEEGERPDRAKGYDLELSMALGTYYPPPRLRQLLPMLLQGTSIFTAPKEIAEIKAQLETALKWRNYEVKLRLLLHLEELQMEHDIRHYDLESVPMTWDPVDQNPRLLTLEVPGVTESRPSVLRGDHLFALLSSETHQEDPITYKGFVHKVELDRVKLSFSMSLLSRFVDGLTFKVNFTFNRQPLRVQHRALELTGRWLLWPMLFPVAPRDVPLLPSDVKLKLYDRSLESNPEQLQAMRHIVTGTTRPAPYIIFGPPGTGKTVTLVEAIKQVVKHLPKAHILACAPSNSGADLLCQRLRVHLPSSIYRLLAPSRDIRMVPEDIKPCCNWDAKKGEYVFPAKKKLQEYRVLITTLITAGRLVSAQFPIDHFTHIFIDEAGHCMEPESLVAIAGLMEVKETGDPGGQLVLAGDPRQLGPVLRSPLTQKHGLGYSLLERLLTYNSLYKKGPDGYDPQFITKLLRNYRSHPTILDIPNQLYYEGELQACADVVDRERFCRWAGLPRQGFPIIFHGVMGKDEREGNSPSFFNPEEAATVTSYLKLLLAPSSKKGKARLSPRSVGVISPYRKQVEKIRYCITKLDRELRGLDDIKDLKVGSVEEFQGQERSVILISTVRSSQSFVQLDLDFNLGFLKNPKRFNVAVTRAKALLIIVGNPLLLGHDPDWKVFLEFCKENGGYTGCPFPAKLDLQQGQNLLQGLSKLSPSTSGPHSHDYLPQEREGEGGLSLQVEPEWRNEL
B2: Unconventional myosin-Id (protein, UniProt O94832 1-1006)
chain: MAEQESLEFGKADFVLMDTVSMPEFMANLRLRFEKGRIYTFIGEVVVSVNPYKLLNIYGRDTIEQYKGRELYERPPHLFAIADAAYKAMKRRSKDTCIVISGESGAGKTEASKYIMQYIAAITNPSQRAEVERVKNMLLKSNCVLEAFGNAKTNRNDNSSRFGKYMDINFDFKGDPIGGHINNYLLEKSRVIVQQPGERSFHSFYQLLQGGSEQMLRSLHLQKSLSSYNYIHVGAQLKSSINDAAEFRVVADAMKVIGFKPEEIQTVYKILAAILHLGNLKFVVDGDTPLIENGKVVSIIAELLSTKTDMVEKALLYRTVATGRDIIDKQHTEQEASYGRDAFAKAIYERLFCWIVTRINDIIEVKNYDTTIHGKNTVIGVLDIYGFEIFDNNSFEQFCINYCNEKLQQLFIQLVLKQEQEEYQREGIPWKHIDYFNNQIIVDLVEQQHKGIIAILDDACMNVGKVTDEMFLEALNSKLGKHAHFSSRKLCASDKILEFDRDFRIRHYAGDVVYSVIGFIDKNKDTLFQDFKRLMYNSSNPVLKNMWPEGKLSITEVTKRPLTAATLFKNSMIALVDNLASKEPYYVRCIKPNDKKSPQIFDDERCRHQVEYLGLLENVRVRRAGFAFRQTYEKFLHRYKMISEFTWPNHDLPSDKEAVKKLIERCGFQDDVAYGKTKIFIRTPRTLFTLEELRAQMLIRIVLFLQKVWRGTLARMRYKRTKAALTIIRYYRRYKVKSYIHEVARRFHGVKTMRDYGKHVKWPSPPKVLRRFEEALQTIFNRWRASQLIKSIPASDLPQVRAKVAAVEMLKGQRADLGLQRAWEGNYLASKPDTPQTSGTFVPVANELKRKDKYMNVLFSCHVRKVNRFSKVEDRAIFVTDRHLYKMDPTKQYKVMKTIPLYNLTGLSVSNGKDQLVVFHTKDNKDLIVCLFSKQPTHESRIGELVGVLVNHFKSEKRHLQVNVTNPVQCSLHGKKCTVSVETRLNQPQPDFTKNRSGFILSVPGN

Biological target: CD44 variant 6 isoform (human (endogenous in A818.4 and Capan1)) (UniProt P16070)
Assay: affinity purification with mass spectrometry; A818.4 (also Capan1) wt and CD44v6kd cells and TEX mildly lysed, precipitated with anti-CD44, Nano-LC-ESI-MS/MS; proteins found in wt but not in CD44v6kd precipitates are called CD44v6-associated

Molecule	binding
B1	binds
B2	binds

Biological target: CD44 variant 6 isoform (human (endogenous in A818.4 and Capan1)) (UniProt P16070)
Assay: as above
Remark: another data set of the same source

Molecule	binding
Endoribonuclease Dicer (from UniProt Q9UPY3 1-1922) (enzyme)	binds
FAK (from UniProt Q05397 1-1052) (enzyme)	binds
Myosin-3 (from UniProt P11055 1-1940)	binds
Spectrin beta chain, nonerythrocytic 1 (from UniProt Q01082 1-2364)	binds
chondroitin sulfate proteoglycan 4 (from UniProt Q6UVK1 30-2322)	binds
clathrin heavy chain 1 (from UniProt Q00610 1-1675)	binds
paxillin (from UniProt P49023 1-591)	binds
